The whole screen tested about 2,400 compounds, of which about 20 (0.8%) were called active.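 How the source made its calls: active means AC50 no more than ten times the highest tested concentration, or full inhibition at every dose giving a flat fit (cut at about 30 µM in these data); inconclusive means flat fit with activity between 30% and 70%, or poor-quality invalid fit; inactive means AC50 more than ten times the top tested dose.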 This is one part of the list.
assay: luciferase-based ADP detection interference – biochemical, luminescence, cell-free, homogeneous, artefact control for GSK-3a inhibitor project, dose response (AID 463205); conditions: Cell-free ADP-Glo detection reagents, 5 uM ADP;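 further: kinase-free counter-screen against the ADP-Glo detection reagents only; potency is for inhibitors that reduce the luminescence signal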

AC50, inactive:
COc1ccc(-c2c(C(C)=O)c(C)nc3sc4c(=O)[nH]nnc4c23)cc1 > 30 µM
Cn1cnnc1Sc1ccc(CN2CCN(C3CCCC3)C(CCO)C2)o1 (configuration not stated) > 30 µM
O=C(CCc1nnc(-c2ccc3c(c2)OCO3)o1)N1CCC(c2ccc(F)cc2)C1 (configuration not stated) > 30 µM
O=C(Nc1ccccc1N1CCOCC1)c1ccc(S(=O)(=O)NCc2ccco2)cc1 > 30 µM
CCSc1nc2c(c(=O)[nH]1)C(c1ccc(C)cc1)C1=C(CCCC1=O)N2 (configuration not stated) > 30 µM
COc1ccc(CCNC(=O)c2nnn(-c3ccccc3OC)c2N)cc1OC > 30 µM
Cc1nc(NCC2CCCO2)[nH]c(=O)c1CCC(C)C (configuration not stated) > 30 µM
Nc1nc2n(n1)C(c1ccc(F)cc1)CC(c1ccc(F)cc1)N2 (configuration not stated) > 30 µM
COc1ccc(C2CC(=O)N3CN(Cc4ccco4)CSC3=C2C#N)cc1 (configuration not stated) > 30 µM
CC(=O)C(Sc1ccc2nnc(-c3ccncc3)n2n1)C(C)=O > 30 µM
N#Cc1cnn2c3c(cnc12)C(=O)N1CCc2ccccc2C1C3 (configuration not stated) > 30 µM
CCCOC(=O)c1[nH]c2c(c1C)C(=O)CC(c1cc(OC)c(OC)c(OC)c1)C2 (configuration not stated) > 30 µM
COc1ccc(-c2cc(=O)c3ccccc3s2)cc1 > 30 µM
O=c1c2ccccc2[nH]c2ccccc12 > 30 µM
CCOC(=O)N1CC=C2C(C#N)=C(N)C(C#N)(C#N)[C@H](c3cccs3)C2C1 (some centres not stated) > 30 µM
Cc1ccccc1C(=O)O/N=C(\N)c1cccc([N+](=O)[O-])c1 > 30 µM
CCOc1ccc(Cn2nnc(C(=O)Nc3cc(C)cc(C)c3)c2N)cc1 > 30 µM
O=C(CSc1ccc2nnc(-c3ccc(Cl)cc3)n2n1)N1CCCC1 > 30 µM
Cc1ccc(C(=O)N/C(=C\c2ccc(-c3ccc(Cl)cc3)o2)C(=O)NCCCN(C)C)cc1 > 30 µM
CC1CCN(CCCNc2cc(NCCO)c([N+](=O)[O-])c3nonc23)CC1 > 30 µM
Cc1c(C(=O)N2CCOCC2)oc2ccc(S(=O)(=O)N3CCCCCC3)cc12 > 30 µM
O=[N+]([O-])c1cc(S(=O)(=O)N2CCCCC2)ccc1NCCCN1CCOCC1 > 30 µM
COC(=O)C(C)Sc1ccc2nnc(-c3cccc(F)c3)n2n1 (configuration not stated) > 30 µM
COc1cc(/C=C2/S/C(=N/S(=O)(=O)Cc3ccccc3)NC2=O)c([N+](=O)[O-])cc1OC > 30 µM
Cc1nc(SCC(=O)N(CC(C)C)C2CCS(=O)(=O)C2)c2ccccc2n1 (configuration not stated) > 30 µM
CC(=O)OCC1OC(n2ccc(=O)[nH]c2=O)C(O)C1O (configuration not stated) > 30 µM
CCOC(=O)c1nnn(-c2nonc2N)c1-c1ccc(F)cc1 > 30 µM
O=C(NCCCN1CCN(Cc2ccccc2Cl)CC1)Nc1ccccc1 > 30 µM
CCc1cc2c(N3CCN(c4nnc(CC)s4)CC3)ncnc2s1 > 30 µM
CCNc1ccc2noc3c2c1C(=O)c1ccccc1-3 > 30 µM
Cc1ccc(N(CC(O)CN2CCCCC2)S(=O)(=O)c2ccc(C)cc2)cc1 (configuration not stated) > 30 µM
CCCc1cc(=O)[nH]c(SCC(=O)Nc2sc3c(c2C(N)=O)CCCC3)n1 > 30 µM
COc1c(C)cc(Br)cc1C(=O)Nc1cccc(NC(=O)c2ccco2)c1 > 30 µM
O=C(NC1(C(F)(F)F)NC(=O)N(Cc2cccnc2)C1=O)c1ccncc1 (configuration not stated) > 30 µM
Cc1ccnc(NC(=O)CN2C(=O)c3ccccc3C2=O)c1 > 30 µM
CC(=O)Nc1ccc(CC#N)cc1 > 30 µM
CC(C)NC(=O)Nc1n[nH]c(Nc2ccc(Cl)cc2)n1 > 30 µM
Cc1cc2nc(-c3cccnc3SCC(=O)NC3CC3)[nH]c2cc1C > 30 µM
O=c1[nH]ncn1-c1ccccc1 > 30 µM
Oc1ccc2oc3c(c2c1C=NCc1ccncc1)CCCC3 > 30 µM
COc1ccc2[nH]c(-c3ccc(C)cc3)cc(=O)c2c1 > 30 µM
O=C(c1ccc(Cn2cnnn2)cc1)N1CCCC(Nc2ccc(F)cc2)C1 (configuration not stated) > 30 µM
CCCCC(=O)Nc1nn(CCC)c2nc3ccccc3cc12 > 30 µM
CCOC(=O)c1c(NC(=O)CN2C(=O)NC3(CCCCC3C)C2=O)sc(C(=O)N(C)C)c1C (configuration not stated) > 30 µM
Cn1c2ccc(Cl)cc2c2nc3ccccc3nc21 > 30 µM
O=C1c2cnc3nc(SCc4cccc(Cl)c4)nn3c2CC2c3ccccc3CCN12 (configuration not stated) > 30 µM
CCOc1ccc(-c2c(C(=O)N/N=C(\C)c3ccncc3)nnn2-c2nonc2N)cc1 > 30 µM
COc1ccc(CC(=O)Oc2ccccc2C)cc1 > 30 µM
CC1CCCN(Cc2c(O)ccc3c2O/C(=C\c2ccco2)C3=O)C1 (configuration not stated) > 30 µM
Cc1ccnc(NC(=O)CCC(=O)N(CC(=O)NCc2ccccc2)Cc2ccccc2)c1 > 30 µM
C/C(CC(=O)N(C(C)C)C(C)C)=N\NC(=O)COc1ccc(Cl)cc1Cl > 30 µM
COc1cccc(-c2nc(-c3ccccc3)[nH]c(=O)c2C#N)c1 > 30 µM
COc1ccc(CNc2ccc3cn[nH]c3c2)c(OC)c1OC > 30 µM
CCC/C(=N/NC(=O)c1nnn(-c2nonc2N)c1CN1CCCCC1)c1ccccc1 > 30 µM
O=C(COC(=O)Cc1ccsc1)Nc1ccc(Cl)cn1 > 30 µM
COc1cc(NC(=O)c2nnn(Cc3ccc(SC)cc3)c2N)cc(OC)c1 > 30 µM
O=C(COc1ccccc1Cl)NC1CC1 > 30 µM
Cc1ccc(/C=N/NC(=O)c2nnn(-c3nonc3N)c2-c2cccs2)cc1 > 30 µM
COc1cc2[nH]c3c(Cl)ncnc3c2cc1OC > 30 µM
COC1OC(COC(=O)c2ccccc2)C(OC(=O)c2ccccc2)C1OC(=O)c1ccccc1 (configuration not stated) > 30 µM
CCC(Oc1ccccc1)C(=O)Nc1ncc([N+](=O)[O-])s1 (configuration not stated) > 30 µM
Cc1nc(N2CCOCC2)nc(N2CCCCC2)c1[N+](=O)[O-] > 30 µM
COc1c(/C=C2\SC(=Nc3ccccc3Cl)NC2=O)cccc1[N+](=O)[O-] > 30 µM
COc1ccc(-n2c(Cc3cccn3C)nnc2SCC(=O)Nc2ccc(F)cc2)cc1 > 30 µM
CCOC(=O)CCc1c(C)c2ccc(O)cc2oc1=O > 30 µM
NCCNc1ccc([N+](=O)[O-])c(NC2CC2)c1 > 30 µM
COc1cc(-c2nnc(SCc3c(F)cccc3Cl)o2)cc(OC)c1OC > 30 µM
c1cncc(-c2nc(NCC3COc4ccccc4O3)c3ccccc3n2)c1 (configuration not stated) > 30 µM
Cc1cccc(NC(=O)c2sc3nc4c(c(-c5cccs5)c3c2N)CN(C)CC4)c1 > 30 µM
Cc1c(Nc2ncccc2C(=O)O)cccc1C(F)(F)F > 30 µM
COC(=O)[C@H](C)NC(=O)NCc1ccccc1F > 30 µM
CCN(CC)S(=O)(=O)c1ccc2oc(C(=O)N3CCOCC3)c(C)c2c1 > 30 µM
Fc1ccc(-c2nnc3ccc(N4CCCC4)nn23)cc1 > 30 µM
Cc1cccc(C)c1OC(=O)C(c1ccccc1)c1ccccc1 > 30 µM
O=C(COc1cccc2cccnc12)N/N=C/c1ccccc1O > 30 µM
COc1ccc(/C=C2\Oc3cc(OCC(=O)N4CC(O)C[C@H]4C(=O)O)ccc3C2=O)cc1OC (some centres not stated) > 30 µM
CCCOc1ccc(-c2nnc(N)s2)cc1 > 30 µM
COc1ccc2nc(NC(=O)CSc3nc4ccccc4o3)sc2c1 > 30 µM
c1nc(NC2CCCCCC2)c2[nH]cnc2n1 > 30 µM
CC(=O)Nc1ccc(-c2csc(NCc3ccccc3)n2)cc1 > 30 µM
N#CC1=C(SCC(=O)c2ccccc2)NC2=C(C(=O)CCC2)C1c1ccco1 (configuration not stated) > 30 µM
Nc1nonc1-n1nnc(C(=O)N/N=C/c2ccco2)c1CSc1ccccc1 > 30 µM
c1ccc(N2CCN(c3cnc4ccccc4n3)CC2)cc1 > 30 µM
Nc1nc(N)nc(-c2cc([N+](=O)[O-])ccc2O)n1 > 30 µM
Cc1cccc(N(C)C(=O)C2CCCN2S(=O)(=O)c2cccc3nsnc23)c1 (configuration not stated) > 30 µM
Cc1cnn(-c2cc(N/N=C/c3ccc(F)cc3)ncn2)c1 > 30 µM
CCCC1=C(C(=O)OCC)C(c2cccnc2)n2nc(C)nc2N1 (configuration not stated) > 30 µM
Nc1nc(N)nc(-c2ccccc2O)n1 > 30 µM
C[C@H](CO)N1C[C@H](C)[C@@H](CN(C)S(=O)(=O)c2ccccc2)Oc2c(NC(=O)c3ccncc3)cccc2C1=O > 30 µM
CCOC(=O)c1cc(-c2ccc(F)cc2)n(CC(=O)NC(C)CC)c1C (configuration not stated) > 30 µM
CC(C)CC(O)C1CCN(C(=O)CCc2nnc(-c3ccc4c(c3)OCO4)o2)CC1 (configuration not stated) > 30 µM
CCOC(=O)c1nnn(-c2nonc2OC)c1-c1ccccc1 > 30 µM

Among those listed so far, 2 contain a CF3 group.
AC50, inactive:
O=C(NC1(C(F)(F)F)NC(=O)N(Cc2cccnc2)C1=O)c1ccncc1 (configuration not stated) > 30 µM
Cc1c(Nc2ncccc2C(=O)O)cccc1C(F)(F)F > 30 µM

An excerpt from further up, for reference:
AC50, inactive:
CCOC(=O)c1nnn(-c2nonc2N)c1-c1ccc(F)cc1 > 30 µM
O=C(NCCCN1CCN(Cc2ccccc2Cl)CC1)Nc1ccccc1 > 30 µM
CCc1cc2c(N3CCN(c4nnc(CC)s4)CC3)ncnc2s1 > 30 µM

From PubChem BioAssay AID463205 (Broad Institute, 2010)
